Measurements: PMC2014788
No constants are given. Whether binding was seen depends on the method and setting. For some of these results: Binding seen in cells or lysates may run through a third protein. Some results given as binding are weak or reduced against the parent protein; the word gives no strength. For some of these results: Where a sequence is shown, tags or fusion partners need not be part of it.

T1: AHP2 (Arabidopsis thaliana) (UniProt Q9FX64)
T1 sequence (chain, radioactively labeled L-methionine incorporated): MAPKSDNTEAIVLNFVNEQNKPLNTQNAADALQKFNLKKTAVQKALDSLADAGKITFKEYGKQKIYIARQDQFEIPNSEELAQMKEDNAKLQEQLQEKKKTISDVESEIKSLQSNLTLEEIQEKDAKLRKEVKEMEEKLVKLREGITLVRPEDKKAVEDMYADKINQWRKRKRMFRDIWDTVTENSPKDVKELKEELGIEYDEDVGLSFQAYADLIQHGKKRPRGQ

T2: AtRAD51 (Arabidopsis thaliana) (UniProt P94102)
T2 sequence (chain, radioactively labeled L-methionine incorporated): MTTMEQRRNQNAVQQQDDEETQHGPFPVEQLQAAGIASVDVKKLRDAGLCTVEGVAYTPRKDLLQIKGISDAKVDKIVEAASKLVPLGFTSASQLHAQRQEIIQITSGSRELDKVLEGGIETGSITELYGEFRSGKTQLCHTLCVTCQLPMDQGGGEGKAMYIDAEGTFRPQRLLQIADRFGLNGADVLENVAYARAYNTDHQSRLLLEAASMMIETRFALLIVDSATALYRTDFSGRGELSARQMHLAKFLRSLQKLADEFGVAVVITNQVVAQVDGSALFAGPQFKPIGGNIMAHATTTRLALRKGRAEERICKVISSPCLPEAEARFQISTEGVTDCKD

T3: AtDMC1 (Arabidopsis thaliana) (UniProt Q39009)
T3 sequence (chain, radioactively labeled L-methionine incorporated): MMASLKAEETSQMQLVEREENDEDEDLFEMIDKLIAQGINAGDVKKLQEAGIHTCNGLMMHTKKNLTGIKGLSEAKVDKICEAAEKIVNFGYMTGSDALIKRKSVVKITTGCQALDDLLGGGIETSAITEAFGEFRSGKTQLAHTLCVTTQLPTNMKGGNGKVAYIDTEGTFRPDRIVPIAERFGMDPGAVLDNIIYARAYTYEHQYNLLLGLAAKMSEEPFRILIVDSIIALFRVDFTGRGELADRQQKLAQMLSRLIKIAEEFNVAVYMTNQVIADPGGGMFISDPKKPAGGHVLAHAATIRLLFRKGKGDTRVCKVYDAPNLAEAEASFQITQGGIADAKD


How the values were obtained:
[1] = molecular target: AtMND1 (Arabidopsis thaliana) (UniProt Q8GYD2); assay: co-IP; proteins co-translated in vitro (TNT reticulocyte lysate) with radioactively labeled L-methionine; samples split and incubated 2 h at 4 °C with anti-c-myc (9E11) or anti-HA (12CA5) antibodies on Protein G Sepharose; NET2 buffer (150 mM NaCl, 50 mM Tris-Cl pH 7.4, 0.05% Igepal); 12% gel …
[2] = molecular target: T1, AHP2 (Arabidopsis thaliana); assay: as above
[3] = molecular target: T2, AtRAD51 (Arabidopsis thaliana); assay: as above
[4] = molecular target: T3, AtDMC1 (Arabidopsis thaliana); assay: as above
[5] = molecular target: AtMND1 (yeast two-hybrid fusion) (Arabidopsis thaliana) (UniProt Q8GYD2); assay: two-hybrid; yeast two-hybrid assay, unpublished data

binding [1]	binding [2]	binding [3]	binding [4]	binding [5]	Binder
binds	binds	binds	binds		AtMND1 (protein, UniProt Q8GYD2 1-230, radioactively labeled L-methionine incorporated) MSKKRGLSLEEKREKMLQIFYESQDFFLLKELEKMGPKKGVISQSVKDVIQSLVDDDLVAKDKIGISIYFWSLPSCAGNQLRSVRQKLESDLQGSNKRLAELVDQCEALKKGREESEERTEALTQLKDIEKKHKDLKNEMVQFADNDPATLEAKRNAIEVAHQSANRWTDNIFTLRQWCSNNFPQAKEQLEHLYTEAGITEDFDYIELSSFPLSSSHEADTAKQLVQDEA
				binds	AtMND1 (yeast two-hybrid fusion) (protein, UniProt Q8GYD2 1-230) MSKKRGLSLEEKREKMLQIFYESQDFFLLKELEKMGPKKGVISQSVKDVIQSLVDDDLVAKDKIGISIYFWSLPSCAGNQLRSVRQKLESDLQGSNKRLAELVDQCEALKKGREESEERTEALTQLKDIEKKHKDLKNEMVQFADNDPATLEAKRNAIEVAHQSANRWTDNIFTLRQWCSNNFPQAKEQLEHLYTEAGITEDFDYIELSSFPLSSSHEADTAKQLVQDEA
		binds	binds		AHP2 (protein, UniProt Q9FX64 1-226, radioactively labeled L-methionine incorporated) MAPKSDNTEAIVLNFVNEQNKPLNTQNAADALQKFNLKKTAVQKALDSLADAGKITFKEYGKQKIYIARQDQFEIPNSEELAQMKEDNAKLQEQLQEKKKTISDVESEIKSLQSNLTLEEIQEKDAKLRKEVKEMEEKLVKLREGITLVRPEDKKAVEDMYADKINQWRKRKRMFRDIWDTVTENSPKDVKELKEELGIEYDEDVGLSFQAYADLIQHGKKRPRGQ
